Experimental data from publication PMC3174242.

Sequences of proteins named here, by UniProt entry; tags and fusion partners are left off. A change or cut given only in a name is not applied to a line headed by its entry.
UniProt P46462: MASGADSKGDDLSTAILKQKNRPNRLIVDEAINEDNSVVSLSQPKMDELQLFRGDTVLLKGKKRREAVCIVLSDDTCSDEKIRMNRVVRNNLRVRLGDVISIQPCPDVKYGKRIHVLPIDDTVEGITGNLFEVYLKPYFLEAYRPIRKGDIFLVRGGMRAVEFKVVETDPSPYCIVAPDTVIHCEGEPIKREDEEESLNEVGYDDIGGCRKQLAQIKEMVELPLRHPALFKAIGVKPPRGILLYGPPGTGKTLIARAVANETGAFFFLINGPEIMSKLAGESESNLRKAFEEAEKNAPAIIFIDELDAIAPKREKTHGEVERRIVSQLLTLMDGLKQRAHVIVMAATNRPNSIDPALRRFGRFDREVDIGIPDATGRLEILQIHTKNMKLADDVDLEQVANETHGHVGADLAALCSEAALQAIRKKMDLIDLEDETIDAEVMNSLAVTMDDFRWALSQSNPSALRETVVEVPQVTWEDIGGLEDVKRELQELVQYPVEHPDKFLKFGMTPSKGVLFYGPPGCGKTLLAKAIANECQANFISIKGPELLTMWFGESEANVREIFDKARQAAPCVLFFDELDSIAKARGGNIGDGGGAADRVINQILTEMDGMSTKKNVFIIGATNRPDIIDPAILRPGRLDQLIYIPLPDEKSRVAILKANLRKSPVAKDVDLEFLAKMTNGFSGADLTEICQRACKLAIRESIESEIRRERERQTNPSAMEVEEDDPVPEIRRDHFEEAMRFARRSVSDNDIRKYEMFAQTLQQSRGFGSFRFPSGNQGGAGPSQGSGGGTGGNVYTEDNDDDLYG
UniProt A0ABK0M5C8: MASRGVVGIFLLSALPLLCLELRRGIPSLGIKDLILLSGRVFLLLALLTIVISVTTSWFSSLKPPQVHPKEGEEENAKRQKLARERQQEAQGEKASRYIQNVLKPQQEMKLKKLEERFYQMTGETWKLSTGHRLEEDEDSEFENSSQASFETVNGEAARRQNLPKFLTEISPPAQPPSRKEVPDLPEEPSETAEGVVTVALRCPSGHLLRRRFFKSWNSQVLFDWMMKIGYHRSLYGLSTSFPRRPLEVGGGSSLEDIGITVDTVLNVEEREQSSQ

Columns and labels:
GST-tagged Rep8 (human) = target: T1, GST-tagged Rep8 (human) (UniProt O00124); assay: pull-down; GST or GST fusion proteins immobilised on glutathione Sepharose beads; purified p97 (from red blood cells, or 6His-tagged p97 and truncations), about 3 ug p97 per reaction, buffer A, 4°C, 4 h; bound proteins by SDS-PAGE and blotting; both purified
T1 sequence: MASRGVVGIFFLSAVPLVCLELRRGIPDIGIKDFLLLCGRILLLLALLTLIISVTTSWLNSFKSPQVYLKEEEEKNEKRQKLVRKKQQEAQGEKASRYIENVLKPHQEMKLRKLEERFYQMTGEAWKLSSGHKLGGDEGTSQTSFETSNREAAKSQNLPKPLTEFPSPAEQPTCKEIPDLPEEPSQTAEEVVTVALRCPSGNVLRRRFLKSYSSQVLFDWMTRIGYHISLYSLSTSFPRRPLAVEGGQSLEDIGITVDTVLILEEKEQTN

[1] = target: endogenous p97 (rat testis) (rat (endogenous in testis)) (UniProt P46462); assay: co-IP; endogenous p97 immunoprecipitated from rat testis homogenate; blot with antibodies to p97 and Rep8

binding (GST-tagged Rep8 (human)) | binding [1] | Substance
binds |  | 6His-tagged p97 N-domain (p97 truncation) (from UniProt Q01853) (domain or fragment)
 | binds | endogenous Rep8 (rat testis) (from UniProt A0ABK0M5C8)

These are yes or no findings as the source states them, for the method shown. Binding calls can cover weak binding; strength is not graded here. For some assays here: Tags and fused reporters may be left off the sequences shown. For some assays here: Binding seen in cells or lysates may run through a third protein.
